Experimental data published in patent US20110003898A1, “MEDICAL GLUES FOR SURGERY COMPRISING BIOACTIVE COMPOUNDS” (Bayer MaterialScience AG, priority 2008, published 2011).

Assay: In vitro bonding of muscular tissue, adhesive strength by pulling
Conditions: adhesive with 2-5% active ingredient on meat, pulling after 4 min; ^2 = suspension
For `COc1ccc2c(c1)c(CC(=O)OCC(=O)O)c(C)n2C(=O)c1ccc(Cl)cc1` [acemetacine], the “Adhesive strengths [after 4 min]” value was “+”. With `CC(=O)Oc1ccccc1C(=O)O` [acetylsalicylic acid] the “Adhesive strengths [after 4 min]” value was “++”. For `CN(C)CCC=C1c2ccccc2CCc2ccccc21` [amitriptyline], the “Adhesive strengths [after 4 min]” value was “++”. With `CCOC(=O)c1ccc(N)cc1` [benzocaine] the “Adhesive strengths [after 4 min]” value was “+”. With `CCCCN1CCCCC1C(=O)Nc1c(C)cccc1C` (stereo not shown) [bupivacaine] the “Adhesive strengths [after 4 min]” value was “+”. For `[H]/N=C(\N/C(=N/[H])NCCCCCCNC(=N)NC(=N)Nc1ccc(Cl)cc1)Nc1ccc(Cl)cc1` [chlorhexidine], the “Adhesive strengths [after 4 min]” value was “++”. For `C[C@]12CCC(=O)C=C1CC[C@@H]1[C@@H]2C(=O)C[C@@]2(C)[C@H]1CC[C@]2(O)C(=O)CO` [cortisone], the “Adhesive strengths [after 4 min]” value was “++”. In the case of `CCN1CCN(c2cc3c(cc2F)c(=O)c(C(=O)O)cn3C2CC2)CC1` [enrofloxazine], the “Adhesive strengths [after 4 min]” value is reported as “++”. For `OC(Cn1cncn1)(Cn1cncn1)c1ccc(F)cc1F` [fluconazole], the “Adhesive strengths [after 4 min]” value was “[3]”. For `O=C1OC(CN2CCOCC2)CN1/N=C/c1ccc([N+](=O)[O-])o1` (stereo not shown) [furaldatone], the “Adhesive strengths [after 4 min]” value was “+”. In the case of `CC(C)Cc1ccc(C(C)C(=O)O)cc1` (stereo not shown) [ibuprofen], the “Adhesive strengths [after 4 min]” value is reported as “++”. With `CCN(CC)CC(=O)Nc1c(C)cccc1C` [lidocaine] the “Adhesive strengths [after 4 min]” value was “++”. In the case of `Cc1ncc([N+](=O)[O-])n1CCO` [metronidazole], the “Adhesive strengths [after 4 min]” value is reported as “++”. With `CC(=O)Nc1ccc(O)cc1` [paracetamol] the “Adhesive strengths [after 4 min]” value was “+”. For `CC(=O)NS(=O)(=O)c1ccc(N)cc1` [sulfacetamide], the “Adhesive strengths [after 4 min]” value was “++”. For `CCCCNc1ccc(C(=O)OCCN(C)C)cc1` [tetracaine], the “Adhesive strengths [after 4 min]” value was “+”. With `Cc1ccc(C(C)C)c(O)c1` [thymol] the “Adhesive strengths [after 4 min]” value was “++”. In the case of `COc1cccc(C2(O)CCCCC2CN(C)C)c1` (stereo not shown) [tramadol], the “Adhesive strengths [after 4 min]” value is reported as “++”. With `Oc1cc(Cl)ccc1Oc1ccc(Cl)cc1Cl` [triclosan (Irgasan), 2,4,4′-trichloro-2′-hydroxydiphenyl ether] the “Adhesive strengths [after 4 min]” value was “++”.
